Binding data for two molecules are collected here from publication PMC8034431.

The target in assay [1] is thrombin-digested FL_(L27D) protein. The assay can be described thus: crystal structure; FL_(L27D) without tag, 22 mg/ml, 2.0 M ammonium sulfate, 0.1 M HEPES pH 5.0, 293 K; space group P1, two copies in the unit cell, 1.65 Å; both purified.
Assay [2] has as its target FLT3 ligand Leu27Asp mutant (FL_(L27D)), as produced. The assay can be described thus: SEC-MALS; each ligand alone; 1 mg/ml injected on Superdex 200 Increase, HBS (20 mM HEPES pH 7.4, 150 mM NaCl), 0.5 ml/min, 25 °C; FL_(L27D) tested up to 95.83 µM (1.7 mg/ml); both purified. For orientation: In gel filtration, larger molecules generally elute earlier.

These are yes or no findings as the source states them, for the method shown.

B1: thrombin-digested FL_(L27D) protein (ligand)
chain: GSHMTQDCSFQHSPISSDFAVKIRELSDYLDQDYPVTVASNLQDEELCGGLWRLVLAQRWMERLKTVAGSKMQGLLERVNTEIHFVTKCAFQPPPSCLRFVQTNISRLLQETSEQLVALKPWITRQNFSRCLELQCQP
As to B1, the binding result in assay [1] is “no binding”.

B2: FLT3 ligand Leu27Asp mutant (FL_(L27D)), as produced (ligand)
chain: TQDCSFQHSPISSDFAVKIRELSDYLDQDYPVTVASNLQDEELCGGLWRLVLAQRWMERLKTVAGSKMQGLLERVNTEIHFVTKCAFQPPPSCLRFVQTNISRLLQETSEQLVALKPWITRQNFSRCLELQCQP
Regarding B2, in assay [2], the binding result is recorded as “no binding (tested: 95.83 µM (1.7 mg ml^−1))”.
